Measurements reported in PubChem BioAssay AID1259254 (NCATS, 2017)
The deposit covers about 59,000 reagents; below is an unselected part. About 1,550 of them (2.6%) were called active. 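G2 share is only a proxy for re-replication; each gene was hit by three separate siRNAs, and active genes were retested.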 Entries without a mark were called inactive. Reagents against one gene are numbered here. Not all columns of the deposit are shown. The record does not give: the amount of reagent.

Test: 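Gene knock-downs that lead to re-replication, shown by excess G2 DNA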 (primary screen)
Cell system: human HCT116 colorectal cancer cells
Knock-down reagent: single siRNA against human genes
Time to read-out: 3 days
Read-out: 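Nuclei stained with Hoechst and imaged; cell-cycle phase assigned by DNA content; G2 share scaled per plate, non-targeting siRNA 0%, GMNN siRNA 100%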
Scale: G2 robust z-score: higher = more G2 cells, more excess DNA replication
Call rule: 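An siRNA counts as active if its G2 robust z-score lies at least 5 MADs above the screen median; here such calls match roughly 38% of GMNN control or more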

For STARD7-AS1 #1 the deposit lists G2 robust z-score -0.329. STARD7-AS1 #2 scored G2 robust z-score -0.912. STARD7-AS1 #3 scored G2 robust z-score -0.558. Against MORF4 #1, the values are G2 robust z-score -0.991. MORF4 #2 showed G2 robust z-score 1.34. With knock-down of MORF4 #3, the screen gave G2 robust z-score 0.068.

After knock-down of SLC7A4 #1, the record shows G2 robust z-score -0.0563. SLC7A4 #2 scored G2 robust z-score 1.02. Against SLC7A4 #3 the deposit lists G2 robust z-score -1.28. TNFAIP1 #1 scored G2 robust z-score -0.707. TNFAIP1 #2 gave G2 robust z-score -0.274. After knock-down of TNFAIP1 #3, the record shows G2 robust z-score 0.218.

With knock-down of USP14 #1 the results were G2 robust z-score -0.822. Against USP14 #2, the values are G2 robust z-score -0.365. With knock-down of USP14 #3, the screen gave G2 robust z-score 0.366. For GSC2 #1 the deposit lists G2 robust z-score 0.709. Silencing of GSC2 #2 gave: G2 robust z-score -0.775. Knock-down of GSC2 #3 resulted in: G2 robust z-score 5.17 (active).

Depletion of NCSTN #1 came out at: G2 robust z-score 1.07. Silencing of NCSTN #2 resulted in: G2 robust z-score -0.224. After knock-down of NCSTN #3, the screen gave G2 robust z-score -0.669. After knock-down of SEC22C #1 the results were G2 robust z-score -0.263. SEC22C #2 scored G2 robust z-score 1.35. Against SEC22C #3 the deposit lists G2 robust z-score -0.145.
